Screening data, single-dose tests

Protein sequences, listed by entry. Tags and fused reporters are not part of them. Residues count along the entry.
UniProt P9WFT3, whole entry: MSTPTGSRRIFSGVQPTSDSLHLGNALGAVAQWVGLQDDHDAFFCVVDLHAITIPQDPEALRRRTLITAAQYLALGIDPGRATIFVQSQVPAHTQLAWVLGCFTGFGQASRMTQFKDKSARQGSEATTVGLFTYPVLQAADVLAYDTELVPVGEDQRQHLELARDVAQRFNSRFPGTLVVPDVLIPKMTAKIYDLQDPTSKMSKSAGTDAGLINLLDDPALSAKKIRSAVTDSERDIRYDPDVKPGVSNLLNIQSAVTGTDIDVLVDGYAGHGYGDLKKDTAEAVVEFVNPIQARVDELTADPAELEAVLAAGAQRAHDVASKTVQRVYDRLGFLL
UniProt I6X8D2, whole entry: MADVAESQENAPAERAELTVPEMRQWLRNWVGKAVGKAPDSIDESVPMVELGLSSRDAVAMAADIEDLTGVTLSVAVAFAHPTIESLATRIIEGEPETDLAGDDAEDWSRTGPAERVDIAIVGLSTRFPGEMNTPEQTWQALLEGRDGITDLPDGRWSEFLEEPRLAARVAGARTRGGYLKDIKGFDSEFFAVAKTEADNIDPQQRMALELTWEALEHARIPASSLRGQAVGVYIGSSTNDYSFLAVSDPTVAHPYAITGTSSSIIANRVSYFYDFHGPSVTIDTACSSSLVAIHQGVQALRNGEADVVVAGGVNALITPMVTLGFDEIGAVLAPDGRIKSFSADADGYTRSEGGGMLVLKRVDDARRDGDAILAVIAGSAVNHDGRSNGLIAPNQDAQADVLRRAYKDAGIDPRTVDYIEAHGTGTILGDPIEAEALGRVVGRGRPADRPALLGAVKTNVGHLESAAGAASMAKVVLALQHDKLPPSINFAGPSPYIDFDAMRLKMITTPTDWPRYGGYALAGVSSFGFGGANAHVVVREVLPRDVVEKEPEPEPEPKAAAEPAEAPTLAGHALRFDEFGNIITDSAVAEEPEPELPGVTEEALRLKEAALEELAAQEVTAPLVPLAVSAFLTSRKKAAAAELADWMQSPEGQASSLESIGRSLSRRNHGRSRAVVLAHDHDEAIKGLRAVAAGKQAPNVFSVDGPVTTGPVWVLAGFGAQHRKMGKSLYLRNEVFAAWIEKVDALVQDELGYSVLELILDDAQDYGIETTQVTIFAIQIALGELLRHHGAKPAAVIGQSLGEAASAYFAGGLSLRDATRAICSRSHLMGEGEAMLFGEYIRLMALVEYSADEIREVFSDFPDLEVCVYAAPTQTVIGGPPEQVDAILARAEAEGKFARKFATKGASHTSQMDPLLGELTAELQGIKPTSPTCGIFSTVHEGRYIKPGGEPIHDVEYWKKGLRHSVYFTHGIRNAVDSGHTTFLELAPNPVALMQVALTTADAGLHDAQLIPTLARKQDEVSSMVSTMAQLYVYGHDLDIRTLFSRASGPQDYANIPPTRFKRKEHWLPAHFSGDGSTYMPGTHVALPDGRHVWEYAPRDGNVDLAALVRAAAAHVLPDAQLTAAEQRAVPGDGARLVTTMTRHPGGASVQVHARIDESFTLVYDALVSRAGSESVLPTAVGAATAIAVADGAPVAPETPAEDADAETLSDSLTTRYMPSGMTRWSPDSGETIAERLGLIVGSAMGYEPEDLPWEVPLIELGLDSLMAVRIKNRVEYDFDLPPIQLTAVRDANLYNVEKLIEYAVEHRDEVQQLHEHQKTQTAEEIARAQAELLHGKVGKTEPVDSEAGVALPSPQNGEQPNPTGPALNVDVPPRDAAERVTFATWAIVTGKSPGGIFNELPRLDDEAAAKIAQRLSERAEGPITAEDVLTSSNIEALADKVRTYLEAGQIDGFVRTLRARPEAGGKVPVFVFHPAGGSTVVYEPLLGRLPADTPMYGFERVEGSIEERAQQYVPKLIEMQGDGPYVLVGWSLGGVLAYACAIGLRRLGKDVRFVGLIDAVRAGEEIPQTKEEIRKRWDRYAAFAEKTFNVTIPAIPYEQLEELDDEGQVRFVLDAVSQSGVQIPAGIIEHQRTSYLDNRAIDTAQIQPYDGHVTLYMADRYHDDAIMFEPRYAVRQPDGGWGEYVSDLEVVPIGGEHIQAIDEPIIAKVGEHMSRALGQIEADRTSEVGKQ
UniProt Q4DA54, 1-478: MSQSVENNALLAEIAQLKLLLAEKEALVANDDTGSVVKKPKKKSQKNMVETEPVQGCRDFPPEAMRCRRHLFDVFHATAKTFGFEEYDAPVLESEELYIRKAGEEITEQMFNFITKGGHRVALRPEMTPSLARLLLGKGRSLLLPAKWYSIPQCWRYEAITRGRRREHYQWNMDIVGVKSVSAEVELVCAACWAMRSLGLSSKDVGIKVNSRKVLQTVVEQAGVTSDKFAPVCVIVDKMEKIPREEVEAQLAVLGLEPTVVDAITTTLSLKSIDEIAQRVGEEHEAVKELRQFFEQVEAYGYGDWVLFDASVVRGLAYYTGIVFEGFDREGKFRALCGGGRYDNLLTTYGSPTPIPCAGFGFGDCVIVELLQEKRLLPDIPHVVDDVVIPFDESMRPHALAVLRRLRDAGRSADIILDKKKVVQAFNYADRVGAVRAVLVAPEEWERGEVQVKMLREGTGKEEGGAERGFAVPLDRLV

The values are deposited in ChEMBL (CHEMBL3988442, “University of Dundee, Small-Polar-MMV Screening Library” (2021)).

A: 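Enzyme assay of tryptophanyl-tRNA synthetase; the read-out is not stated. Target: Tryptophan-tRNA ligase, Mycobacterium tuberculosis (UniProt P9WFT3). Tested at 10 µM. Direction is not recorded; retested compounds ran higher, which suggests that high means inhibition. Of about 65,000 compounds tested this way, about 64 (0.098%) reached 50% or more in at least one test.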
B: 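Cell assay of Leishmania donovani living inside macrophages; the read-out is not stated. Tested at 30 µM. The record gives no direction; compounds that gave an IC50 in retests scored well above the rest, so higher reads as stronger inhibition. About 69,000 compounds were tested under these conditions; 1.5% (about 1,000) showed 50% or more at least once.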
C: 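Polyketide synthase Pks13, Mycobacterium tuberculosis (UniProt I6X8D2). Enzyme assay of the thioesterase domain of polyketide synthase 13; the read-out is not stated. Concentration: 30 µM. The record gives no direction; the compounds picked for IC50 retests had high values, so higher reads as stronger inhibition. Of about 67,000 compounds tested this way, about 300 (0.46%) reached 50% or more in at least one test.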
D: 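Histidine-tRNA ligase, Trypanosoma cruzi CL Brener (UniProt Q4DA54). Enzyme assay of histidyl-tRNA synthetase; the read-out is not stated. Compounds at 30 µM. Higher reads as stronger inhibition (inferred: compounds with an IC50 in retests scored well above the rest). About 69,000 compounds were tested under these conditions; 0.045% (about 31) showed 50% or more at least once.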

Each number is a percent effect as filed.
How 0% and 100% were set is not recorded. Most values in the screen are low, and negative values occur.
Compounds were drawn at random from those tested, without regard to their results.
A dash means the value is not listed here; it may have been measured.

Compound	A	B	C	D
Cc1nc(=O)c2ccccc2n1C1=CCN(CC(=O)N2CCCC2)CC1	-7.794%	66.01%	-4.002%	7.143%
Cc1ccc(NC2CCN(C(=O)c3cc(C)sc3C)CC2)nn1	-2.443%	36.69%	-0.3327%	4.52%
O=C1OCCN1Cc1cccc(C(F)(F)F)c1F	-4.094%	-12.37%	-11.36%	5.051%
c1cnn(C2CN(CCCOc3ccc4c(c3)OCO4)C2)c1	1.786%	-3.75%	2.735%	5.155%
c1cnc(N2CCO[C@H]3[C@H](OCCN4CCCC4)CC[C@@H]32)nc1	1.339%	-	-14.86%	8.602%
CC(N1CCN(C(=O)NCc2cccc(C#N)c2)CC1)C(F)(F)F (stereo not drawn)	-1.175%	18.48%	-7.097%	1.031%
O=C(O)C1CCN(C(=O)Cn2ccc3c(Cl)cccc32)CC1	3.337%	16.33%	-33.64%	3.636%
CC(NC(=O)C1CCCCC1)c1cc(O)nc(-c2cccnc2)n1 (stereo not drawn)	0.06528%	34.55%	14.4%	3.39%
COCCN1CCCC12CCN(Cc1cccnc1OC)CC2.O=C(O)C(F)(F)F.O=C(O)C(F)(F)F	-	-19.9%	-	-
[H][C@]12C[C@H](CNC(=O)c3cccn3C)O[C@]1([H])CN(C(=O)c1ccno1)C2	-	23.07%	-	-
CCOc1ccccc1CN(C)C(=O)CN1C(=O)OC[C@@H]1C(C)C	3.065%	-12.88%	-20.04%	-0.8696%
Cc1ccnc(N2CCC(NCCOc3ccccc3)CC2)n1	-2.457%	18.71%	-18.66%	12.71%
O=C(NCC1CCOCC1)[C@H]1C[C@@H]2CCN(c3nncs3)C[C@@H]2O1	-6.987%	-	-5.734%	5.607%
CC(NC(=O)Cn1cccn1)c1ccc2c(c1)OCCO2 (stereo not drawn)	7.984%	8.277%	-19.87%	-6.322%
Cc1cnc(N2CC3(CCN(C(=O)c4ccoc4)C3)C2)nc1	-4.391%	4.963%	-6.362%	-12.55%
N#Cc1cccc(CN2CC3(CCCCN3c3cncnc3)CC2=O)c1 (stereo not drawn)	-3.171%	-	-15.12%	10.75%
Cc1nc(C)c(CCNC(Cc2ccncc2)C(F)(F)F)s1 (stereo not drawn)	-0.1032%	-8.501%	-20.84%	6.494%
CCOC(=O)C1CCCN(Cc2cc(C#N)n(C)c2C)C1 (stereo not drawn)	-1.711%	13.35%	5%	0%
O=C1CC[C@]2(CC[C@@H](NCc3ccsc3)CC2)N1Cc1ccccc1	-0.4361%	-	-35.58%	3.883%
COCc1nc2cc(NCc3cc[nH]n3)ccc2o1	4.956%	13.7%	-	3.448%
Cc1ccc(NC2(C(=O)NCCCc3c(C)n[nH]c3C)CCCC2)cc1	1.273%	-14.18%	2.348%	6.818%
CN(C)C1CCN(C(=O)c2cc(-c3ccn(C)n3)n3ccccc23)CC1.O=C(O)C(F)(F)F	-	10.2%	-	-
COc1cc(C)c(C2CC(=O)Nc3cc(NS(C)(=O)=O)ccc32)cc1C (stereo not drawn)	3.644%	0.08099%	-64.85%	3.017%
COCC1CN(C(=O)CS(C)(=O)=O)Cc2ncn(CC3CC3)c21 (stereo not drawn)	-6.443%	20%	-	2.804%
COc1cccc(N2C(=O)CC3(CCCNC3)C2=O)c1 (stereo not drawn)	6.25%	-	-22.16%	1.942%
COCC1CN(Cc2cc(C)on2)Cc2cn(CC3CCCC3)nc21 (stereo not drawn)	-4.74%	-	-	2.488%
CCC(NC1CSCCSC1)c1ccc(S(C)(=O)=O)cc1 (stereo not drawn)	-3.132%	26.31%	13.33%	5.473%
CC(C)[C@H]1CN(c2cnccn2)C[C@@H]1NC(=O)C1(C#N)CCOCC1	1.44%	-3.319%	26.3%	6.931%
CN(C)S(=O)(=O)N1CC[C@]2(C[C@@H](OCc3ccccn3)CO2)C1.O=C(O)C(F)(F)F	-	19.43%	-	-
COCCN1CCn2cc(CNC(=O)C3CCC3)nc2C1	1.627%	-8.559%	9.316%	6.863%
CC(C)c1cc(CN2CCC(CC(=O)O)CC2)no1	-	5.531%	60.11%	8.092%
Cc1cnccc1NC(=O)CCc1ccsc1	-4.156%	24.41%	-27.82%	-0.578%
c1cnc2c(c1)nc1n2[C@@H](CNCc2nccs2)COC1	-1.022%	14.42%	-40.57%	3.483%
Cc1cc(CC2COCCN(CCc3ccccc3)C2)ncn1 (stereo not drawn)	15.53%	6.321%	-6.361%	18.42%
CCn1c(C)cc(C(=O)N2CCC(NC(=O)c3cc(C)no3)CC2)c1C	4.627%	26.02%	-6.844%	1.84%
[H][C@@]12OCCN(C(=O)C3CCOCC3)[C@@]1([H])CC[C@H]2OC	-	-4.728%	-	-
CC(=O)N1CCC(c2cncc(Oc3ccccc3)n2)CC1	0.1762%	7.304%	-23.14%	-0.5464%
CC(C)CC(=O)NCCCn1cncn1	1.33%	-10.64%	-4.768%	6.667%
COc1ccc(CNC(=O)c2cc3c(nc2O)CCC(C)C3)cc1 (stereo not drawn)	0.764%	17.63%	-33.04%	5.682%
CCC(CC)C(CNC(=O)Nc1ccc(C)cc1)N1CCOCC1 (stereo not drawn)	1.967%	19.76%	-33.24%	0.7519%
[H][C@]12CC[C@]([H])(CN(Cc3noc(C4CCCC4)n3)C1)N(CC1CCC1)C2	-	1.872%	-	-
Cc1ccc(C(CCNCCCN(C)C)C2CCOC(C)(C)C2)cc1 (stereo not drawn)	1.001%	-	-17.49%	12.5%
Cc1nc(NCc2cccnc2)c2c(n1)c(C)nn2C	1.077%	43.58%	-19.55%	1.674%
COc1cccc(CC2(CO)CCCN(c3nccs3)C2)c1 (stereo not drawn)	0.9684%	25.82%	-25.58%	6.726%
COCCn1cc(C(=O)NCCS(N)(=O)=O)c2ccccc21	-4.143%	59.49%	-19.84%	9.091%
CCC1=N[C@@]2(CC[C@@H]3CN(Cc4ccc(Cl)cc4)C[C@@H]32)C(=O)N1C	1.831%	-	-26.9%	3.867%
Cn1nnc2c1C(COCc1ccccn1)CN(Cc1ccoc1)C2.O=C(O)C(F)(F)F.O=C(O)C(F)(F)F (stereo not drawn)	-	16.76%	-	-
CCn1c(C)nnc1SCCNc1cc(N2CCOCC2)ncn1	5.705%	17.16%	-15.77%	6.154%
COc1cc(C(=O)NS(=O)(=O)c2cccc(C#N)c2)cc(OC)c1C	-7.557%	25.65%	-9%	-0.578%
Cc1cncc(C2CCCN2CCO)n1 (stereo not drawn)	-2.264%	16.45%	2.311%	11.65%
O=C(NS(=O)(=O)c1cnn(-c2ccccc2F)c1)c1ccco1	1.87%	-2.719%	-13.1%	1.571%
CN(C)CCN1C(=O)CCC12CCCN(C(=O)c1ccncc1F)C2 (stereo not drawn)	-	-	-4.562%	6.145%
Cc1nn(C)c(C)c1S(=O)(=O)N(C)Cc1nn(C)c(Cl)c1Cl	0.892%	1.519%	-14.42%	4.762%

For reference, 7 entries once more:

Compound	A	B	C	D
COCC1CN(Cc2cc(C)on2)Cc2cn(CC3CCCC3)nc21 (stereo not drawn)	-4.74%	-	-	2.488%
COc1cc(C(=O)NS(=O)(=O)c2cccc(C#N)c2)cc(OC)c1C	-7.557%	25.65%	-9%	-0.578%
Cc1ccc(C(CCNCCCN(C)C)C2CCOC(C)(C)C2)cc1 (stereo not drawn)	1.001%	-	-17.49%	12.5%
[H][C@]12CC[C@]([H])(CN(Cc3noc(C4CCCC4)n3)C1)N(CC1CCC1)C2	-	1.872%	-	-
Cn1nnc2c1C(COCc1ccccn1)CN(Cc1ccoc1)C2.O=C(O)C(F)(F)F.O=C(O)C(F)(F)F (stereo not drawn)	-	16.76%	-	-
CC(=O)N1CCC(c2cncc(Oc3ccccc3)n2)CC1	0.1762%	7.304%	-23.14%	-0.5464%
CC(NC(=O)Cn1cccn1)c1ccc2c(c1)OCCO2 (stereo not drawn)	7.984%	8.277%	-19.87%	-6.322%